Measurements reported in PMC6424098.
Changes are numbered by the printed parent chain. In names and notes the source's numbering stands. Results are given in words; binding and its absence hold for the method and conditions named. In cells and extracts the contact can be indirect. Some entries that bind do so weakly or less than the wild type. Where a sequence is shown, tags or fusion partners need not be part of it.

Protein sequences, listed by entry. Tags and fused reporters are not part of them. Lines headed by an entry give the natural chain unless they say otherwise; changes in a name come on top.
UniProt Q04726, whole entry: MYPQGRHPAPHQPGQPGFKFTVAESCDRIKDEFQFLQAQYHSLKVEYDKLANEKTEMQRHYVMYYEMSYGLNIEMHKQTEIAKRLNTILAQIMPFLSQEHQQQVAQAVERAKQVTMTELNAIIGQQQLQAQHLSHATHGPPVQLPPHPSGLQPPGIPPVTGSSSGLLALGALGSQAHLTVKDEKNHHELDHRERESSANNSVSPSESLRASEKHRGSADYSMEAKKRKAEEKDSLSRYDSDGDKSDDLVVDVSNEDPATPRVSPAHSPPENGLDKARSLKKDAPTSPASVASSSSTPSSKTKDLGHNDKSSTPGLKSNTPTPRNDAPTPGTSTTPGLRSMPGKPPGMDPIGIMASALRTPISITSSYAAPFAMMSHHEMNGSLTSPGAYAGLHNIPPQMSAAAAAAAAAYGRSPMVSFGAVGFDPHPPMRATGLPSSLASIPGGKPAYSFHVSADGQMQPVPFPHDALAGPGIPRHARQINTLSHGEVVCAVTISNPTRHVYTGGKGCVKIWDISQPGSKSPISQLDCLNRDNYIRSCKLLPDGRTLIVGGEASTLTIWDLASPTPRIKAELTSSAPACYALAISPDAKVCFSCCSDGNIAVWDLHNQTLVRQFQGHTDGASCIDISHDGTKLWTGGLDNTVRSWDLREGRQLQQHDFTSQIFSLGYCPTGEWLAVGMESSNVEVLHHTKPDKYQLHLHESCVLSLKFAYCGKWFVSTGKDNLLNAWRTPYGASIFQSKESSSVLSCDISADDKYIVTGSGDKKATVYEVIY

B1: FLAG-tagged C/EBPβ R193L (protein, UniProt Q05826 1-328)
chain: MQRLVAWDAACLPIQPPAFKSMEVANFYYEADCLAALNKLHPRAAGGRSMTELTVGDHERAIDFSPYLDPLAASQQPAQPPPPAAAAGGNFEPACSSGGQDFLSDLFAEDYKGSGGGKKPDYTYISLTRHGHPCGSQSHKPGVLPGCFPPQIVETKVEPVFETLDSCKGPRKEEGGAGPGPGGMSSPYGSTVLSYLGYQSVPSGSSGNLSTSSSSSPPGTPNPSESSKSAAGAGGYSGPPAGKNKPKKCVDKHSDEYKLRRERNNIAVRKSRDKAKMRNLETQHKVLELTAENERLQKKVEQLSRELSTLRNLFKQLPEPLLASSPRC
B2: FLAG-tagged C/EBPβ R193A (protein, UniProt Q05826 1-328)
chain: B1 chain with L193A

Key:
[1] = target: hemagglutinin (HA)-tagged TLE3 (UniProt Q04726); assay: co-IP; WT and mutant C/EBPβ with HA-tagged TLE3; pull down of TLE3 by immunoprecipitation (Figure 5C)
[2] = target: hemagglutinin (HA)-tagged TLE3 (UniProt Q04726); assay: co-IP; co-expression of WT C/EBPβ or mutants (R193A, R193L), TLE3, with or without CARM1 (Figure 5E)

Binder | binding [1] | binding [2]
B1 | binds | binds
B2 | no binding | no binding
